Reference: US20050164379A1
These are yes or no findings as the source states them, for the method shown. In cells and extracts the contact can be indirect. Some binding calls cover weakened binding; strength is not graded here.

Protein sequences, listed by entry. Tags and fused reporters are not part of them. Lines headed by an entry give the natural chain unless they say otherwise; changes in a name come on top.
UniProt Q12809: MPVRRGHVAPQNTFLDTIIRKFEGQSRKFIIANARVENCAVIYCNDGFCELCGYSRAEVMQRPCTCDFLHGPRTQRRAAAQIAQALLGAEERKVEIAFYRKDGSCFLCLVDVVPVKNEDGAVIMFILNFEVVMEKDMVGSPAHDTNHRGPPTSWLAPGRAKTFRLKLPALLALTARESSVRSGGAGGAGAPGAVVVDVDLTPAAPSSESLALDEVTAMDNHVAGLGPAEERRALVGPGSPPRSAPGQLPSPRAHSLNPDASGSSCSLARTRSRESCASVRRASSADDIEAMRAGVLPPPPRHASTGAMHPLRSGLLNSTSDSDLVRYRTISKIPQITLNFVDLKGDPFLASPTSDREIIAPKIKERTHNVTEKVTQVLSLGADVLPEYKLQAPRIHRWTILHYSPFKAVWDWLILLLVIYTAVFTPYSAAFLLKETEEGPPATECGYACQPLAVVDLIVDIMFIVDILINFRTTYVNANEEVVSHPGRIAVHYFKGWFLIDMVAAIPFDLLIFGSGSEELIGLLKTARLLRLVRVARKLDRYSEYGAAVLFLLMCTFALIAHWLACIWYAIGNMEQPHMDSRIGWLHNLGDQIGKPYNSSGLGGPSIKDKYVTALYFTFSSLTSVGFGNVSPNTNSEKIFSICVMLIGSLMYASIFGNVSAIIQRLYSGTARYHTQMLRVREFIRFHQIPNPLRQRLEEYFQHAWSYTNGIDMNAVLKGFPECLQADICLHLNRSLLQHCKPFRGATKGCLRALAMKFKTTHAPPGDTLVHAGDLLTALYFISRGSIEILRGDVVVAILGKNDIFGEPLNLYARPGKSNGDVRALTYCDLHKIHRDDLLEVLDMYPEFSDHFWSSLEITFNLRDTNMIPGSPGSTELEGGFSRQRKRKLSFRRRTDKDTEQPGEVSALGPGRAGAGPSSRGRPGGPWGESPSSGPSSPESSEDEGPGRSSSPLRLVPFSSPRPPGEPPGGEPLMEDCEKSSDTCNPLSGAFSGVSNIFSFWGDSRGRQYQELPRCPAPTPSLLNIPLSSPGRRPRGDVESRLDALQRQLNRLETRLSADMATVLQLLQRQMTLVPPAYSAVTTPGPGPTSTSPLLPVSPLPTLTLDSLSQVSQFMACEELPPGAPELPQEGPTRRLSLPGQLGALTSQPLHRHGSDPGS

Tests used:
[1] = target: HERG1b subunit (human ERG1b) (human) (UniProt Q12809); experiment: co-immunoprecipitation
[2] = target: HERG1b subunit (human ERG1b) (human) (UniProt Q12809); experiment: co-immunoprecipitation from a human myocyte preparation
[3] = target: HERG1b subunit (human ERG1b) (human) (UniProt Q12809); experiment: co-immunoprecipitation from stably transfected HEK-293 cells

Measured: binding

HERG1a subunit (human ERG1a) (from UniProt Q12809 1-1159)
binds: all assays above
